Reference: article PMC10657414, “LncRNA INHEG promotes glioma stem cell maintenance and tumorigenicity through regulating rRNA 2’-O-methylation” (Nature Communications, 2023)
Where two headings read alike, the source gives them in different places. No constants are given. Whether binding was seen depends on the method and setting. In cells and extracts the contact can be indirect. Some results given as binding are weak or reduced against the parent protein; the word gives no strength.

By UniProt entry, the sequences of proteins in these tests, tags left out.
UniProt Q92804: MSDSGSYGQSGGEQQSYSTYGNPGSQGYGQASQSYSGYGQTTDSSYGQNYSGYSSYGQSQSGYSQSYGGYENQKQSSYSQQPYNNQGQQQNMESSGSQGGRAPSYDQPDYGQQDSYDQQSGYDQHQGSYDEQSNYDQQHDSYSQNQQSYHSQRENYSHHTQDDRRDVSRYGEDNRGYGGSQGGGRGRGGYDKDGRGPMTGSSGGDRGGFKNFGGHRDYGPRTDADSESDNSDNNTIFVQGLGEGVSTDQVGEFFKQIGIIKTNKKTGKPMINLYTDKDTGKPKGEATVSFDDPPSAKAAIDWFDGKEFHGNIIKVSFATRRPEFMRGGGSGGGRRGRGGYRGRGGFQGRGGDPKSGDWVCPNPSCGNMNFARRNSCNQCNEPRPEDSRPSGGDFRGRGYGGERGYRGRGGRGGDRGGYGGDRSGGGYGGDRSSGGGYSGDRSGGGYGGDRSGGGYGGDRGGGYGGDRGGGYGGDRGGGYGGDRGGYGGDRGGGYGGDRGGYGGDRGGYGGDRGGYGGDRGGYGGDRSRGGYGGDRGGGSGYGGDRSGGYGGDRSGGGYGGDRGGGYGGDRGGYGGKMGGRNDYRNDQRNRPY
UniProt P63279: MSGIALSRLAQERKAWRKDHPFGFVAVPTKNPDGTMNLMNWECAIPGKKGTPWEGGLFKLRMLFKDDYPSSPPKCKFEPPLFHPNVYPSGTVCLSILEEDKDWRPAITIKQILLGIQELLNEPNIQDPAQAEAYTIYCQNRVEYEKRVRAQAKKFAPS

How the values were obtained:
[1] = target: TAF15, endogenous in glioma cells (human (endogenous in U87-MG and U251-MG)) (UniProt Q92804); assay: co-IP; TAF15 antibody (by the legend), whole-cell lysates of U87-MG and U251-MG, endogenous proteins; also in cells with dCas9-VP64 INHEG overexpression or a non-targeting sgRNA
[2] = target: T1, NOP58 (NOP58 Ribonucleoprotein), endogenous in glioma cells (human (endogenous in U87-MG and U251-MG)) (UniProt Q9Y2X3); assay: co-IP; anti-NOP58 antibody, whole-cell lysates of U251-MG with KRAB-dCas9 INHEG knockdown, dCas9-VP64 INHEG overexpression or a non-targeting sgRNA; blot for NHP2L1
T1 sequence: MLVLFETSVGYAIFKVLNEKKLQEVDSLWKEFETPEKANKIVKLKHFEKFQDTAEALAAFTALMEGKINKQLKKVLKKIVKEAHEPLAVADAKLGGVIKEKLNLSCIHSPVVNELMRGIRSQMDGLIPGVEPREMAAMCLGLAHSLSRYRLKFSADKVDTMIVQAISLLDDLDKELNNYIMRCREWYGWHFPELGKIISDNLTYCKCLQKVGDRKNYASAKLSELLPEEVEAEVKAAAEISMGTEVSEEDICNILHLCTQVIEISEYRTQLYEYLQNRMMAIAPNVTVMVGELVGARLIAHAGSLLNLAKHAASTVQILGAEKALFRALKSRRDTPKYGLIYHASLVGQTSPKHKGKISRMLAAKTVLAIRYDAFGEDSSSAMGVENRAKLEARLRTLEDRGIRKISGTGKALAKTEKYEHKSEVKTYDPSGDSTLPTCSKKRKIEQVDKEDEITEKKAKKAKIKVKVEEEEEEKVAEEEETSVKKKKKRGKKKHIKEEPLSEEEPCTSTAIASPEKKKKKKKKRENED

[3] = target: TAF15, endogenous in glioma cells (human (endogenous in U87-MG and U251-MG)) (UniProt Q92804); assay: co-IP; TAF15 antibody (by the legend), whole-cell lysates of U87-MG and U251-MG, endogenous proteins; also in cells with dCas9-VP64 INHEG overexpression or a non-targeting sgRNA; remark: listed apart in the source
[4] = target: TAF15, ectopically expressed in 293T cells (human) (UniProt Q92804); assay: co-IP; TAF15 and NOP58 ectopically expressed in 293T; also with ectopic INHEG and with RNase A treatment of the lysates

Which binding [1] does the source give for “UBC9 (SUMO2 E2 ligase), endogenous in glioma cells (from UniProt P63279 1-158) (enzyme)” here?
Its binding is “binds”.

B1: NHP2L1, endogenous in U251-MG cells (protein, UniProt P55769 1-128)
chain: MTEADVNPKAYPLADAHLTKKLLDLVQQSCNYKQLRKGANEATKTLNRGISEFIVMAADAEPLEIILHLPLLCEDKNVPYVFVRSKQALGRACGVSRPVIACSVTIKEGSQLKQQIQSIQQSIERLLV
With B1 as the molecule, how does the binding [2] read?
Its binding is “binds”.

B2: NOP58 (NOP58 Ribonucleoprotein), endogenous in glioma cells (protein, UniProt Q9Y2X3 1-529)
chain: MLVLFETSVGYAIFKVLNEKKLQEVDSLWKEFETPEKANKIVKLKHFEKFQDTAEALAAFTALMEGKINKQLKKVLKKIVKEAHEPLAVADAKLGGVIKEKLNLSCIHSPVVNELMRGIRSQMDGLIPGVEPREMAAMCLGLAHSLSRYRLKFSADKVDTMIVQAISLLDDLDKELNNYIMRCREWYGWHFPELGKIISDNLTYCKCLQKVGDRKNYASAKLSELLPEEVEAEVKAAAEISMGTEVSEEDICNILHLCTQVIEISEYRTQLYEYLQNRMMAIAPNVTVMVGELVGARLIAHAGSLLNLAKHAASTVQILGAEKALFRALKSRRDTPKYGLIYHASLVGQTSPKHKGKISRMLAAKTVLAIRYDAFGEDSSSAMGVENRAKLEARLRTLEDRGIRKISGTGKALAKTEKYEHKSEVKTYDPSGDSTLPTCSKKRKIEQVDKEDEITEKKAKKAKIKVKVEEEEEEKVAEEEETSVKKKKKRGKKKHIKEEPLSEEEPCTSTAIASPEKKKKKKKKRENED
How did the binding [3] turn out when B2 was run?
The binding was “binds”.

B3: NOP58, ectopically expressed in 293T cells (protein, UniProt Q9Y2X3 1-529)
chain: MLVLFETSVGYAIFKVLNEKKLQEVDSLWKEFETPEKANKIVKLKHFEKFQDTAEALAAFTALMEGKINKQLKKVLKKIVKEAHEPLAVADAKLGGVIKEKLNLSCIHSPVVNELMRGIRSQMDGLIPGVEPREMAAMCLGLAHSLSRYRLKFSADKVDTMIVQAISLLDDLDKELNNYIMRCREWYGWHFPELGKIISDNLTYCKCLQKVGDRKNYASAKLSELLPEEVEAEVKAAAEISMGTEVSEEDICNILHLCTQVIEISEYRTQLYEYLQNRMMAIAPNVTVMVGELVGARLIAHAGSLLNLAKHAASTVQILGAEKALFRALKSRRDTPKYGLIYHASLVGQTSPKHKGKISRMLAAKTVLAIRYDAFGEDSSSAMGVENRAKLEARLRTLEDRGIRKISGTGKALAKTEKYEHKSEVKTYDPSGDSTLPTCSKKRKIEQVDKEDEITEKKAKKAKIKVKVEEEEEEKVAEEEETSVKKKKKRGKKKHIKEEPLSEEEPCTSTAIASPEKKKKKKKKRENED
B3 was tested. Which binding [4] did it give?
The binding was “binds”.
